Taken from: PubChem BioAssay AID1259254 (NCATS, 2017)
The deposit covers about 59,000 reagents; this is a part drawn at random. About 1,550 of all reagents (2.6%) were called active. 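G2 share is only a proxy for re-replication; each gene was hit by three separate siRNAs, and active genes were retested.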 Entries without a mark were called inactive. Reagents against one gene are numbered here. Further read-outs or replicates are left out here. Not given: the amount of reagent.

- Test: 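Gene knock-downs that lead to re-replication, shown by excess G2 DNA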 (primary screen)
- Cells: human HCT116 colorectal cancer cells
- Reagent: single siRNA against human genes
- Time to read-out: 3 days
- Measured: 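Imaged Hoechst DNA stain sorts each cell into a cycle phase by DNA amount; per plate, G2 fraction set to 0% for non-targeting and 100% for GMNN siRNA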
- Scale: G2 robust z-score and G2 cells, % of GMNN control: higher = more G2 cells, more excess DNA replication
- Hit rule: 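Active siRNAs have a G2 robust z of 5 or more median absolute deviations over the median, which in these data means about 38% or higher of GMNN control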

TSPY1 (GeneID 7258) #1 gave G2 robust z-score -0.434; G2 cells, % of GMNN control -0.0896.
Silencing of TSPY1 (GeneID 7258) #2 resulted in: G2 robust z-score 1.18; G2 cells, % of GMNN control 11.3.
Knock-down of TSPY1 (GeneID 7258) #3 gave: G2 robust z-score -0.524; G2 cells, % of GMNN control -0.719.
Depletion of GYPB (GeneID 2994) #1 gave: G2 robust z-score 2.3; G2 cells, % of GMNN control 19.1.
After knock-down of GYPB (GeneID 2994) #2, the record shows G2 robust z-score 2.01; G2 cells, % of GMNN control 17.1.
After knock-down of GYPB (GeneID 2994) #3, the record shows G2 robust z-score 3.96; G2 cells, % of GMNN control 30.8.

Targets above whose gene name begins with G or g:
GYPB (GeneID 2994) #1 | G2 robust z-score: 2.3; G2 cells, % of GMNN control: 19.1
GYPB (GeneID 2994) #2 | G2 robust z-score: 2.01; G2 cells, % of GMNN control: 17.1
GYPB (GeneID 2994) #3 | G2 robust z-score: 3.96; G2 cells, % of GMNN control: 30.8

The list goes on.
Silencing of OR13H1 (GeneID 347468) #1 resulted in: G2 robust z-score -0.866; G2 cells, % of GMNN control -3.13.
After knock-down of OR13H1 (GeneID 347468) #2, the record shows G2 robust z-score -0.329; G2 cells, % of GMNN control 0.656.
Silencing of OR13H1 (GeneID 347468) #3 resulted in: G2 robust z-score 1.27; G2 cells, % of GMNN control 11.9.
GPD1 (GeneID 2819) #1 gave G2 robust z-score 0.0391; G2 cells, % of GMNN control 3.24.
Depletion of GPD1 (GeneID 2819) #2 came out at: G2 robust z-score 2.92; G2 cells, % of GMNN control 23.5.
GPD1 (GeneID 2819) #3 gave G2 robust z-score -0.975; G2 cells, % of GMNN control -3.89.
